# Laboratory results as given in PubChem BioAssay AID1487 (National Center for Advancing Translational Sciences (NCATS), 2009).
# This is one part of the list. The main result of the screen is listed elsewhere. These columns were measured beside it and carry no call. Compounds called inactive in the main read-out are mostly missing here. The note in brackets gives the kind of curve behind each potency; many fits are weak.
# Experiment: qHTS Assay for Modulators of Lamin A Splicing
# Settings: HeLa LMNA splicing GFP/RFP minigene ratio, 48 h
# Procedure, shortened: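 S3 HeLa stable clones carrying a lamin A-EGFP splicing minigene plus DsRed2 were seeded at 600 cells/well in Opti-MEM with 2% FBS, pin-dosed and incubated 48 h at 37°C. Acumen cytometry (488 nm) gave the GFP/RFP total-intensity ratio.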
# [1] = measured here: RFP viability control channel
# [2] = measured here: GFP splicing reporter channel
compound,measurement,setting,value
CCS(=O)(=O)NC(C)C(c1cccs1)N1CCN(c2ccc(F)cc2)CC1 (stereo unspecified),AC50,[1],"8.91 µM [rising, partial curve, poor fit]"
COc1ccc(Cl)cc1Nc1ncnc2c1nc1n2CCCC1,AC50,[2],"5.62 µM [falling, partial curve]"
same,AC50,[1],"31.6 µM [rising, single point]"
COC(=O)c1[nH]c2ccc(F)cc2c1NC(=O)Nc1ccc(OC)cc1,AC50,[1],"0.141 µM [falling, full curve, poor fit]"
CC(C)c1ccc(NC(=O)CNS(=O)(=O)c2ccc(F)cc2)cc1,AC50,[2],"0.02 µM [falling, full curve, poor fit]"
same,AC50,[1],"0.02 µM [falling, full curve, poor fit]"
CNC(=O)c1cc2n(n1)CCCN(Cc1ccc(F)cc1)C2=O,AC50,[2],"0.0316 µM [rising, full curve, poor fit]"
O=C(Nc1ccc(SC(F)F)cc1)c1ccc(F)cc1,AC50,[2],"0.316 µM [falling, full curve, poor fit]"
Cc1ccc(C(=O)c2ccccc2C(=O)OCC(=O)NCCc2ccc(Cl)cc2Cl)cc1,AC50,[1],"14.1 µM [rising, single point]"
Cc1ccc(-c2nnn(CC(=O)N(Cc3ccco3)C(C(=O)NC(C)(C)C)c3ccc(C)o3)n2)o1 (stereo unspecified),AC50,[2],"35.5 µM [falling, partial curve]"
NC(=O)Cn1c(=O)n(-c2ccccc2)c(=O)c2oc3ccccc3c21,AC50,[1],"1.26 µM [rising, single point]"
Cc1ccccc1OCc1nnc(SCC(=O)Nc2ccc3nc(SCC(=O)Nc4ccccc4)sc3c2)n1C,AC50,[2],"3.55 µM [rising, full curve, poor fit]"
same,AC50,[1],"8.91 µM [rising, partial curve, poor fit]"
O=C(CCCSc1nc(-c2ccco2)cc(C(F)(F)F)n1)Nc1ccc2c(c1)OCO2,AC50,[1],"22.4 µM [rising, partial curve]"
O=C1/C(=C\c2ccc3ccccc3c2)CCCc2ccccc21,AC50,[2],"17.8 µM [falling, partial curve]"
same,AC50,[1],"35.5 µM [falling, single point]"
O=C(CSc1ncnc2ccccc12)Nc1cccc(S(=O)(=O)N2CCOCC2)c1,AC50,[2],"0.178 µM [falling, full curve, poor fit]"
same,AC50,[1],"0.1 µM [falling, partial curve]"
COCCNC(=O)COC(=O)CSCc1nc2ccccc2s1,AC50,[2],"5.62 µM [falling, single point]"
same,AC50,[1],"5.62 µM [falling, single point]"
COCCCNCCCOc1ccc(Cl)cc1C(C)(C)C,AC50,[1],"31.6 µM [rising, single point]"
COc1cc(C(=S)N2CCOCC2)ccc1OS(=O)(=O)c1ccccc1[N+](=O)[O-],AC50,[1],"3.16 µM [rising, partial curve, poor fit]"
COc1cccc(CNC(=O)Cn2ccc3cc(S(=O)(=O)N4CCCC4)ccc32)c1,AC50,[2],"35.5 µM [rising, partial curve, poor fit]"
same,AC50,[1],"20 µM [rising, single point]"
O=C(Cc1cccs1)Nc1nnc(SCc2ccc(F)cc2)s1,AC50,[1],"2 µM [rising, full curve]"
Cc1sc2nc(CSCC(=O)Nc3ccccc3C#N)[nH]c(=O)c2c1C,AC50,[1],"2.24 µM [rising, partial curve, poor fit]"
Cc1ccc2c(Cl)c(C(=O)Nc3ccc4c(c3)OCO4)sc2c1,AC50,[2],"12.6 µM [rising, partial curve, poor fit]"
CC(=O)N(CCCc1ccc(C(C)(C)C)cc1)CCCN(C)C,AC50,[1],"22.4 µM [rising, single point]"
COc1ccc(Cl)c(N2CCN(CCCNC(=O)Nc3ccc(C)cc3)CC2)c1,AC50,[1],"35.5 µM [rising, single point]"
O=C(CSc1ncnc2sc3c(c12)CCCC3)c1ccco1,AC50,[2],"14.1 µM [rising, single point]"
same,AC50,[1],"35.5 µM [rising, single point]"
Cc1ccc(CN(Cc2ccco2)c2cnc(S(C)(=O)=O)nc2C(=O)Nc2ccc(Br)cc2)o1,AC50,[2],"0.0355 µM [rising, full curve, poor fit]"
CC(=O)Nc1ccc(S(=O)(=O)N2CCc3c(Cl)cccc3C2)cc1,AC50,[1],"11.2 µM [rising, single point]"
CN(C(=O)CSc1nc2ccc(Br)cc2c(=O)n1Cc1ccco1)C1CCS(=O)(=O)C1 (stereo unspecified),AC50,[2],"28.2 µM [falling, partial curve]"
Cc1nn(-c2ccccc2)c2sc(C(=O)NC3CCCCC3)cc12,AC50,[1],"12.6 µM [rising, single point]"
O=C1CC(NCc2ccc(F)cc2)C(=O)N1c1ccccc1 (stereo unspecified),AC50,[2],"14.1 µM [rising, partial curve, poor fit]"
same,AC50,[1],"0.00447 µM [falling, full curve, poor fit]"
COc1cccc(-c2nnc(NC(=O)c3ccc(S(=O)(=O)N4CCOCC4)cc3)o2)c1,AC50,[2],"10 µM [rising, partial curve]"
c1nc(N2CCNCC2)c2cc(-c3ccc4c(c3)OCO4)ccc2n1,AC50,[1],"35.5 µM [rising, single point]"
Cc1ccc(-n2sc3ccccc3c2=O)cc1S(=O)(=O)N1CCCCC1,AC50,[1],"31.6 µM [rising, single point]"
CC(=O)Nc1ccc(S(=O)(=O)NCC2CCC(C(=O)NCCCOC(C)C)CC2)cc1 (stereo unspecified),AC50,[2],"0.0631 µM [rising, full curve, poor fit]"
Cc1occc1C(=O)Nc1nnc(-c2cccs2)s1,AC50,[2],"0.0316 µM [rising, full curve]"
same,AC50,[1],"6.31 µM [rising, partial curve, poor fit]"
CCCCc1nc(Cl)c(CO)n1Cc1ccc(-c2ccccc2-c2nn[nH]n2)cc1,AC50,[2],"0.708 µM [rising, partial curve, poor fit]"
CCCOc1ccc(S(=O)(=O)n2cc(Br)c(=O)[nH]c2=O)cc1,AC50,[1],"0.251 µM [falling, partial curve]"
COc1ccc(S(=O)(=O)NCCSc2ccc(C)cc2)cc1OC,AC50,[1],"22.4 µM [rising, single point]"
CN(C#N)c1nccc(-c2cccs2)n1,AC50,[1],"5.62 µM [falling, single point]"
COC(=O)/C=C1/SC(=Nc2ccc(C)cc2C)NC1=O,AC50,[2],"14.1 µM [falling, single point]"
same,AC50,[1],"28.2 µM [falling, partial curve]"
CSc1nc(C)cc(Oc2ccc(OCCOc3ccccc3)nn2)n1,AC50,[2],"11.2 µM [rising, single point]"
Cc1ccccc1-n1nc(C)c2cc(C(=O)NCc3cccnc3)sc21,AC50,[1],"17.8 µM [rising, partial curve, poor fit]"
CCCCC(CC)COC(=O)/C=C/c1ccc(OC)cc1 (stereo unspecified),AC50,[2],"35.5 µM [falling, single point]"
same,AC50,[1],"2.82 µM [rising, full curve, poor fit]"
c1cncc(-c2nc(-n3ccnc3)c3ccccc3n2)c1,AC50,[2],"11.2 µM [falling, partial curve]"
same,AC50,[1],"25.1 µM [falling, single point]"
COc1cc(OC)cc(C(=O)Nn2cc(C(=O)Nc3ccccc3F)c3ccccc3c2=O)c1,AC50,[1],"35.5 µM [rising, single point]"
COC(=O)c1sccc1S(=O)(=O)N1CCN(c2cccc(C)c2C)CC1,AC50,[2],"0.0562 µM [falling, full curve]"
CC(=O)N(c1ccccc1)c1nc(/C=C/C(=O)Nc2c(C)cc(C)cc2C)cs1,AC50,[1],"7.08 µM [rising, partial curve, poor fit]"
CCOc1ccc2nc(C(=O)N3CCCC(C)C3)sc2c1 (stereo unspecified),AC50,[2],"1.78 µM [rising, partial curve, poor fit]"
CC1CCCCC1NC(=O)COC(=O)c1ccccn1 (stereo unspecified),AC50,[1],"20 µM [falling, single point]"
CCN(CC)CCc1nc(-c2ccccc2)no1,AC50,[2],"6.31 µM [falling, single point]"
c1csc(-c2nc3c4ccccc4c4ccccc4c3[nH]2)c1,AC50,[2],"20 µM [rising, single point]"
same,AC50,[1],"15.8 µM [rising, single point]"
O=S(=O)(NCc1ccc2c(c1)OCO2)c1cccc2cccnc12,AC50,[2],"11.2 µM [rising, partial curve]"
same,AC50,[1],"11.2 µM [rising, single point]"
CCOc1ccccc1Nc1ncccc1C(=O)N1CCCC1,AC50,[2],"3.55 µM [rising, full curve, poor fit]"
same,AC50,[1],"8.91 µM [rising, partial curve]"
Brc1cccc2sc(N3CCN(c4ccccc4)CC3)nc12,AC50,[2],"14.1 µM [falling, single point]"
O=C(Nc1nccs1)c1cccc(N2C(=O)C3C4C=CC(C4)C3C2=O)c1 (stereo unspecified),AC50,[2],"3.98 µM [rising, partial curve]"
same,AC50,[1],"0.631 µM [rising, full curve, poor fit]"
Cc1ccc(NC(=O)N2CCC(NC(=O)C(C)(C)C)CC2)cc1,AC50,[2],"0.00316 µM [falling, full curve, poor fit]"
same,AC50,[1],"0.00631 µM [falling, full curve, poor fit]"
CNC(=S)N(CCc1c(C)[nH]c2ccc(Cl)cc12)Cc1cccs1,AC50,[2],"31.6 µM [rising, single point]"
same,AC50,[1],"20 µM [rising, single point]"
CCOc1ccc(-c2cc(CCCC(=O)Nc3cccc(OC)c3)no2)cc1,AC50,[1],"3.16 µM [rising, full curve, poor fit]"
CCOc1ccc(CCNC(=O)CSc2cc(=O)n(C)c3ccccc23)cc1OCC,AC50,[1],"0.447 µM [rising, full curve, poor fit]"

# Given with tabs: entries from further up
compound	measurement	setting	value
CCOc1ccccc1Nc1ncccc1C(=O)N1CCCC1	AC50	[1]	8.91 µM [rising, partial curve]
Brc1cccc2sc(N3CCN(c4ccccc4)CC3)nc12	AC50	[2]	14.1 µM [falling, single point]
O=C(Nc1nccs1)c1cccc(N2C(=O)C3C4C=CC(C4)C3C2=O)c1 (stereo unspecified)	AC50	[2]	3.98 µM [rising, partial curve]

# Rewritten with tabs: entries from further up
compound	measurement	setting	value
CCCCC(CC)COC(=O)/C=C/c1ccc(OC)cc1 (stereo unspecified)	AC50	[2]	35.5 µM [falling, single point]
same	AC50	[1]	2.82 µM [rising, full curve, poor fit]
